Reference: the GenesisPotency data set
Out of some 220,000 compounds screened, about 16,000 (7.3%) were called active. Another 25% or so got no clear call; they are omitted. Calls follow the shape of the dose curve; as a rule, active = well fitted inhibition curve with a large enough effect (not every such curve was filed as active); inconclusive = small, poorly fitted or top-dose-only effect, or another doubt; inactive = no such curve, though single readings can be large or run the other way. Some of the results follow.

Biological target: T1, Aldehyde dehydrogenase 1A1, Homo sapiens (UniProt P00352)
T1 sequence (whole entry): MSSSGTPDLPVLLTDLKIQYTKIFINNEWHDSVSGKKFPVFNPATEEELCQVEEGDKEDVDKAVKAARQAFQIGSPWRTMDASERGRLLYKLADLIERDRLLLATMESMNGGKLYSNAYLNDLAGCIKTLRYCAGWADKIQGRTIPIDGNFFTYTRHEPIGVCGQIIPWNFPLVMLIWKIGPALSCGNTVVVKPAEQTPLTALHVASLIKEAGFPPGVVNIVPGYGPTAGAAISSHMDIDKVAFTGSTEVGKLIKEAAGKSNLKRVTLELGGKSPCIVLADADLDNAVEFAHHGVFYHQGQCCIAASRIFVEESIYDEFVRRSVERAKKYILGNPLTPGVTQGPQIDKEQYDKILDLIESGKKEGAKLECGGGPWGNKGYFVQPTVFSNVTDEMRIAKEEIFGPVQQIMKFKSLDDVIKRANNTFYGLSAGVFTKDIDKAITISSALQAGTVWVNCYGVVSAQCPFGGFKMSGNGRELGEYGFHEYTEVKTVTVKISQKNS
Test: qHTS Assay for Inhibitors of Aldehyde Dehydrogenase 1 (ALDH1A1)

Row | SMILES | outcome
1 | CN[C@@H](C)CCC=C(C)C.CN[C@@H](C)CCC=C(C)C.O=C(O)[C@@H](O)[C@@H](O)[C@@H](O)[C@@H](O)C(=O)O | inactive
